# Primary screen of a compound library

Data taken from ChEMBL document CHEMBL3988442, “University of Dundee, Small-Polar-MMV Screening Library” (2021).

Values are the deposited “Percent Effect”, in %.
The record does not define 0% and 100%; most values in the screen are far below 50% and negative numbers occur (in some assays of this library far below -100).
Compounds were drawn at random from those tested, without regard to their results.
Two or more numbers in one place are separate tests of the same structure; such repeats can differ widely.

Mtb glucose medium: 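Whole-cell growth test on Mycobacterium tuberculosis, read after 3 days in glucose-containing 7H9 medium; the read-out is not stated. Compounds at 50 µM. Higher reads as more growth inhibition (inferred: compounds with an IC50 in retests scored well above the rest). About 69,000 compounds were tested under these conditions; 1.1% (about 760) showed 50% or more at least once.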
Mtb cholesterol medium: 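Whole-cell growth test on Mycobacterium tuberculosis, read after 4 days in a medium based on cholesterol and the lipid DPPC; the read-out is not stated. Compounds at 50 µM. Direction is inferred from retests: higher values go with more growth inhibition. Of about 69,000 compounds tested this way, about 370 (0.54%) reached 50% or more in at least one test.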

- CCc1c(C(=O)NCC(=O)OCC2CC2)cnn1-c1ccc(C)cc1 | Mtb glucose medium: 71.1%; Mtb cholesterol medium: 58.4%
- CCN(CC)C(=O)c1cc(C2(C)CCN(C(C)=O)CC2)nc(C)n1 | Mtb glucose medium: -3.606%; Mtb cholesterol medium: -4.27% & -9.436%
- CC[C@H]1CN(C(=O)c2ccc(-n3cnnc3)nc2)CC[C@@]1(C)O | Mtb glucose medium: -41.78%; Mtb cholesterol medium: 8.19%
- COCCC1CCCCN1Cc1nc(Cc2cccc(F)c2)no1 (stereo not given) | Mtb glucose medium: 43.31% & 17.23%; Mtb cholesterol medium: 8.175%
- Cc1nc(CNC(=O)Nc2cc(F)ccc2OC(F)F)no1 | Mtb glucose medium: -10.51%; Mtb cholesterol medium: -18.19%
- CC(C)n1cc2cc(NC(=O)CCS(C)(=O)=O)ccc2n1 | Mtb glucose medium: -2.684%; Mtb cholesterol medium: 11.56%
- c1ccc2oc(NC3CCCN(Cc4noc(C5CC5)n4)C3)nc2c1 (stereo not given) | Mtb glucose medium: 69.95%; Mtb cholesterol medium: 17.58%
- Cc1nc(COc2ccc(N(C)S(C)(=O)=O)cc2)sc1C | Mtb glucose medium: -4.554%; Mtb cholesterol medium: -3.278%
- O[C@@H]1Cc2ccccc2[C@@H]1Nc1ncccc1F | Mtb glucose medium: 14.14%; Mtb cholesterol medium: -17.48%
- Cc1nc2c(c(=O)n1C)CN(C(=O)C1CCCN(C(N)=O)C1)C2 (stereo not given) | Mtb glucose medium: -27.33%; Mtb cholesterol medium: -10.15% & -22.45%
- O=c1[nH]c(NC2CCCC2)nc2nccc(-c3ccsc3)c12 | Mtb glucose medium: 0.9084%; Mtb cholesterol medium: -3.669%
- OC1CCCOC12CCN(Cc1nnc(-c3cccnc3)o1)CC2 (stereo not given) | Mtb glucose medium: 0.06231%; Mtb cholesterol medium: -23.74%
- Cc1ccc(OCCC(=O)N2CCN(c3cnccn3)CC2)cc1C | Mtb glucose medium: -10.53%; Mtb cholesterol medium: -13.02%
- Cc1ccnc(CNC(=O)C2CC(=O)N(CCN(C)C)C2)c1 (stereo not given) | Mtb glucose medium: 8.002%; Mtb cholesterol medium: -18.94%
- Cc1csc(N2CCN(C(=O)c3c(C)oc(C)c3C)CC2)n1 | Mtb glucose medium: -3.396%; Mtb cholesterol medium: 7.111%
- CC(NC(=O)c1cccs1)C(=O)NCc1ccccc1CN1CCCC1 (stereo not given) | Mtb glucose medium: 9.613%; Mtb cholesterol medium: -6.365%
- CN(C)C(=O)C1CCC2(CCN(C(=O)Nc3cccc(F)c3)CC2)O1 (stereo not given) | Mtb glucose medium: 2.781%; Mtb cholesterol medium: -7.891%
- CC(CN1CCOCC1)NC(=O)N(C)Cc1ccc(Cl)s1 (stereo not given) | Mtb glucose medium: -4.838% & 0.06573%; Mtb cholesterol medium: -8.841%
- O=C(NCCNc1cnccn1)N1CCCCCC1 | Mtb glucose medium: 9.184%; Mtb cholesterol medium: -10.45%
- O=C(NC1CCCC1)O[C@H]1COCCN(c2nc3ccccc3o2)C1 | Mtb glucose medium: 10.26% & 11.58%; Mtb cholesterol medium: 25.53%
- Cc1noc(C)c1CN1CCN(Cc2nccn2C)C(C)C1 (stereo not given) | Mtb glucose medium: 0.6061%; Mtb cholesterol medium: 3.009%
- O=C(CCSc1ccc2c(c1)OCCO2)NCC1CCS(=O)(=O)C1 (stereo not given) | Mtb glucose medium: -33.94%; Mtb cholesterol medium: 8.968%
- Cc1cc(C(=O)N2CCn3cnc(COCC4CC4)c3C2)no1 | Mtb glucose medium: 6.603% & -8.253%; Mtb cholesterol medium: -9.943% & -20.79%
- Cc1nn(C)c(N2CCOCC2)c1CNCc1cscn1 | Mtb glucose medium: -10.54%; Mtb cholesterol medium: -16.41%
- Cc1ccsc1-c1nnc(SCC(=O)O)n1C(C)c1ccccc1 (stereo not given) | Mtb glucose medium: 4.431% & 9.646%; Mtb cholesterol medium: -7.599%
- O=C(Nc1nc[nH]n1)c1cc(-c2ccc(F)cc2)n[nH]1 | Mtb glucose medium: -12.94%; Mtb cholesterol medium: -3.316%
- [H][C@]12CN(C(=O)c3ccnn3C)C[C@@]1([H])OCCN(S(C)(=O)=O)C2 | Mtb glucose medium: 14.23%; Mtb cholesterol medium: 3.184%
- c1cncc(-c2nc3c(c(NCC4(c5ccncc5)CC4)n2)CCC3)c1 | Mtb glucose medium: 28.54%; Mtb cholesterol medium: -3.819%
- COc1ccc(NC(=O)CSc2ccc3nncn3n2)c(OC)c1 | Mtb glucose medium: 6.977%; Mtb cholesterol medium: -3.628%
- CCc1nc(CNc2cc(C)nc(-c3cccnc3)n2)cs1 | Mtb glucose medium: -0.3686%; Mtb cholesterol medium: 23.77%
- Cc1cccc(NC(=O)C2(n3cnnn3)CCCCC2)n1 | Mtb glucose medium: 26.41%; Mtb cholesterol medium: 2.277%
- CCOCC(=O)N(Cc1ccccn1)Cc1ccccc1C | Mtb glucose medium: 20.7%; Mtb cholesterol medium: -9.046%
- CN1CC2(CCCN(C(=O)Cc3cccc(O)c3)C2)OC1=O (stereo not given) | Mtb glucose medium: -5.909%; Mtb cholesterol medium: -6.755%
- CN(C)C1CCN(C(=O)c2ccnn2-c2ccc3ccccn23)CC1.O=C(O)C(F)(F)F | Mtb glucose medium: 23.18%; Mtb cholesterol medium: 12.88%
- Cc1nc(N2CCOCC2)nc2c1CCN(Cc1ccsc1)CC2.O=C(O)C(F)(F)F | Mtb glucose medium: 31.79% & 29.38%; Mtb cholesterol medium: 14.66% & 16.01%
- Cc1cc(C)n2c(CCCNS(=O)(=O)c3ccccc3)nnc2n1 | Mtb glucose medium: -1.646%; Mtb cholesterol medium: -0.4075%
- NC(=O)c1ccc(OCCCN2C[C@H](C3CC3)[C@@H](N)C2)cc1 | Mtb glucose medium: 17.17%; Mtb cholesterol medium: -5.418%
- O=C(O)C(F)(F)F.[H][C@]12CCN(C(=O)Cc3cccs3)C[C@@]1([H])OCCN(C)C2 | Mtb glucose medium: -12.53%; Mtb cholesterol medium: -3.228%
- CCOc1ncccc1CNC(=O)Nc1ccc(CC)cc1 | Mtb glucose medium: -1.58%; Mtb cholesterol medium: -4.52%
- CCC(=O)N1CCc2[nH]cnc2C12CCN(C(=O)c1snnc1C)CC2 | Mtb glucose medium: 1.419%; Mtb cholesterol medium: -9.585%
- CN(C)CC(=O)N1Cc2nnn(C)c2C(COCc2ccccn2)C1.O=C(O)C(F)(F)F.O=C(O)C(F)(F)F (stereo not given) | Mtb glucose medium: 19.39% & -10.83%; Mtb cholesterol medium: 26.95%
- CCN(Cc1ccc2c(c1)OCO2)Cc1nc2c(cnn2C)c(=O)[nH]1 | Mtb glucose medium: -0.05976%; Mtb cholesterol medium: -10.03%

Once more, the final 4:

{"compound": "CCOc1ncccc1CNC(=O)Nc1ccc(CC)cc1", "Mtb glucose medium": -1.58, "Mtb cholesterol medium": -4.52}
{"compound": "CCC(=O)N1CCc2[nH]cnc2C12CCN(C(=O)c1snnc1C)CC2", "Mtb glucose medium": 1.419, "Mtb cholesterol medium": -9.585}
{"compound": "CN(C)CC(=O)N1Cc2nnn(C)c2C(COCc2ccccn2)C1.O=C(O)C(F)(F)F.O=C(O)C(F)(F)F", "stereo": "stereo not given", "Mtb glucose medium": "19.39 & -10.83", "Mtb cholesterol medium": 26.95}
{"compound": "CCN(Cc1ccc2c(c1)OCO2)Cc1nc2c(cnn2C)c(=O)[nH]1", "Mtb glucose medium": -0.05976, "Mtb cholesterol medium": -10.03}